These are yes or no findings as the source states them, for the method shown. In cells and extracts the contact can be indirect. Some entries that bind do so weakly or less than the wild type.
How the values were obtained:
Experiment in all cases: co-IP; anti-FLAG co-IP of FLAG-ATG3 variants transiently expressed in HCT116 ATG3 knock-down cells (CRISPRi); immunoblotting for ATG5–ATG12 and ATG16L1
[1] = biological target: FLAG-ATG3 C264A (human) (UniProt Q9NT62)
[2] = biological target: FLAG-ATG3 W107A (human) (UniProt Q9NT62)
[3] = biological target: FLAG-ATG3 wt (human) (UniProt Q9NT62)
[4] = biological target: FLAG-ATG3 ΔLIR (human) (UniProt Q9NT62)

The chains behind the UniProt entries cited, without tags or fusion partners. Where a name states a change or a piece, a line headed by the entry shows the natural chain unless it says otherwise.
UniProt Q9H1Y0: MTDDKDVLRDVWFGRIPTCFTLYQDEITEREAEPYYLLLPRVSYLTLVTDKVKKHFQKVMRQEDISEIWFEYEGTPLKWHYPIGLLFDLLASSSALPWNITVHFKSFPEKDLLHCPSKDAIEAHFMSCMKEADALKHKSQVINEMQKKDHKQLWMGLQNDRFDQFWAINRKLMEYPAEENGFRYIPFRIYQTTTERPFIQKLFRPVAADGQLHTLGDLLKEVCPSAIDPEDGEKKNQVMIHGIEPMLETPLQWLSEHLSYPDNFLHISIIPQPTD
UniProt Q676U5: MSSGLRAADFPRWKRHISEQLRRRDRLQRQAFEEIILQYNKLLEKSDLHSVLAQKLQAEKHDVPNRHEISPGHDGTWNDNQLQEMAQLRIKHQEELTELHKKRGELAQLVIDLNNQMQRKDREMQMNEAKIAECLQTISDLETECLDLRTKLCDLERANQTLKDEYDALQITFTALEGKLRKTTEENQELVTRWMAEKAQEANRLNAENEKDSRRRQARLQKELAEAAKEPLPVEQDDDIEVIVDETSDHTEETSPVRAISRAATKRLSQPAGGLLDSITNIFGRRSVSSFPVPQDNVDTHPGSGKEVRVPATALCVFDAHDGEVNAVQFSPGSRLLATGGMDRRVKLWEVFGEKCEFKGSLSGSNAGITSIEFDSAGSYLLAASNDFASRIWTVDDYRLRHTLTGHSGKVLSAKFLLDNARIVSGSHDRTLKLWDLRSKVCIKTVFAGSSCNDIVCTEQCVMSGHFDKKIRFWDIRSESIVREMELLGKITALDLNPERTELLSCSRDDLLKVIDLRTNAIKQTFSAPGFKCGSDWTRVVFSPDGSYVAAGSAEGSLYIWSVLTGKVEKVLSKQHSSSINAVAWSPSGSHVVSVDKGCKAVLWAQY

binding [1]	binding [2]	binding [3]	binding [4]	Substance
binds	binds	binds	binds	ATG5-ATG12 complex (from UniProt Q9H1Y0 1-275; O94817 1-140)
binds	binds	binds	binds	ATG16L1 (from UniProt Q676U5 1-607)

Reference: publication PMC10214526, “Semisynthetic LC3 Probes for Autophagy Pathways Reveal a Noncanonical LC3 Interacting Region Motif Crucial for the Enzymatic Activity of Human ATG3” (ACS Central Science, 2023)
